These results are taken from the supplement of paper PMC9938546.

Where a name gives a salt, the structure may show the parent alone. The list shows a part of the results. Plates or batches differ in their baseline, so values are only roughly comparable.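 HCT116-GFP, a KRAS-mutant, microsatellite-unstable human colorectal cancer line, constantly expresses green fluorescent protein; immune cells were from healthy donors. Cancer cell survival was tracked by live-cell imaging of green fluorescence, and activated immune cells by themselves reduced survival to roughly half.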

This assay has as its system HCT116-GFP. The assay can be described thus: HCT116-GFP viability (GFP intensity) relative to untreated HCT116-GFP monoculture control, co-culture with activated PBMCs; higher = less cancer cell killing. Conditions: culture: co-culture with anti-CD3/IL2 activated PBMCs 1:1; 10 µM; 72 h.
As to `CN1CCCC(n2nc(Cc3ccc(Cl)cc3)c3ccccc3c2=O)CC1` (centres undefined) [Azelastine hydrochloride], the HCT116-GFP viability was 66.2%.
To `CCN1CCN(C(=O)N[C@@H](C(=O)N[C@@H]2C(=O)N3[C@@H]2SC(C)(C)[C@@H]3C(=O)O)c2ccccc2)C(=O)C1=O` [Piperacillin sodium salt] belongs 72.9%; to `CO[C@@H]1[C@@H](OC(N)=O)[C@@H](O)[C@H](Oc2ccc3c(O)c(NC(=O)c4ccc(O)c(CC=C(C)C)c4)c(=O)oc3c2C)OC1(C)C` [Novobiocin sodium salt], 68.1%.
Consider `N=C(N)NCC1COC2(CCCCC2)O1` (centres undefined) [Guanadrel sulfate], for which the HCT116-GFP viability was found to be 54.1%.
For `CC1(C)OC(=O)NC1=O` [Dimethadione], the HCT116-GFP viability came out at 72.7%.
To `Nc1ccc(C(=O)NCC(=O)O)cc1` [Aminohippuric acid] belongs 70.2%; to `COc1ccc(NS(=O)(=O)c2ccc(N)cc2)nn1` [Sulfamethoxypyridazine], 87.2%.
Consider `CCC[C@H](N[C@@H](C)C(=O)N1[C@H](C(=O)O)C[C@@H]2CCCC[C@@H]21)C(=O)OCC` [Perindopril], for which the HCT116-GFP viability stood at 25.4%.
As to `OCCN1CCN(CCCN2c3ccccc3Sc3ccc(Cl)cc32)CC1` [Perphenazine], the HCT116-GFP viability was 29.5%.
On to `CN(C)CCc1c[nH]c2ccc(Cn3cncn3)cc12` [Rizatriptan benzoate], for which the HCT116-GFP viability is 30.4%.
With `Nc1ccc(S(=O)(=O)c2ccc(N)cc2)cc1` [Dapsone], the HCT116-GFP viability was found to be 56.8%.
In the case of `OC[C@H]1O[C@@H](Oc2ccc(O)cc2)[C@H](O)[C@@H](O)[C@@H]1O` [Arbutin], the HCT116-GFP viability came to 35.7%.
Turning to `C=C1C[C@H]2[C@@H]3C=C(C)C4=CC(=O)CC[C@]4(C)[C@H]3CC[C@]2(C)[C@@]1(OC(C)=O)C(C)=O` [Melengestrol acetate], the HCT116-GFP viability was 104%.
With `CC(=O)Oc1cccc2c1C(=O)c1c(OC(C)=O)cc(C(=O)O)cc1C2=O` [Diacerein], the HCT116-GFP viability was found to be 84.2%.
As for `CN(C)CCc1c[nH]c2ccc(C[C@H]3COC(=O)N3)cc12` [Zolmitriptan], the HCT116-GFP viability turned out to be 87%.
In the case of `CN(C)CCC=C1c2ccccc2C=Cc2ccccc21` [Cyclobenzaprine hydrochloride], the HCT116-GFP viability is 69.9%.
For the compound `C[N+]1(C)CCC(=C(c2ccccc2)c2ccccc2)CC1` [Diphemanil methylsulfate], the HCT116-GFP viability came to 50.4%.
On to `NS(=O)(=O)c1cc2c(cc1Cl)NCNS2(=O)=O` [Hydrochlorothiazide], for which the HCT116-GFP viability came out at 34.3%.
Next, `CNNCc1ccc(C(=O)NC(C)C)cc1` [Procarbazine hydrochloride]: 28.3%; `O=c1[nH]c(=O)n([C@H]2C[C@H](O)[C@@H](CO)O2)cc1F` [Floxuridine]: 3.39%; `COc1cc(C)c(/C=C/C(C)=C/C=C/C(C)=C/C(=O)O)c(C)c1C` [Acitretin]: 87.9%.
For the compound `CC(C)OC(=O)CCC/C=C\C[C@@H]1[C@@H](CC[C@@H](O)CCc2ccccc2)[C@H](O)C[C@@H]1O` [Latanoprost], the HCT116-GFP viability was determined as 49.2%.
As for `CC(=O)Oc1cc(C(C)C)c(OCCN(C)C)cc1C` [Moxisylyte hydrochoride], the HCT116-GFP viability stood at 55.7%.
Consider `CC(c1cc2ccccc2s1)N(O)C(N)=O` (centres undefined) [Zileuton], for which the HCT116-GFP viability was found to be 74.2%.
With `C#C[C@]1(O)CC[C@H]2[C@@H]3[C@H](C)CC4=C(CCC(=O)C4)[C@H]3CC[C@@]21C` [Tibolone], the HCT116-GFP viability turned out to be 47.4%.
In the case of `CC(=O)OCC(=O)[C@@]1(O)CC[C@H]2[C@@H]3CCC4=CC(=O)C=C[C@]4(C)[C@@]3(F)[C@@H](O)C[C@@]21C` [Isoflupredone acetate], the HCT116-GFP viability came to 67.4%.
For the compound `COc1cc(C(=O)N2CCOCC2)cc(OC)c1OC` [Trimetozine], the HCT116-GFP viability came to 67.1%.
As to `CN(C)CCCOc1nn(Cc2ccccc2)c2ccccc12` [Benzydamine hydrochloride], the HCT116-GFP viability was found to be 65.4%.
With `Nc1ccc(S(=O)(=O)Nc2ccc(Cl)nn2)cc1` [Sulfachloropyridazine], the HCT116-GFP viability stood at 76.6%.
Next, `COc1cc2nc(N3CCN(C(=O)C4CCCO4)CC3)nc(N)c2cc1OC` (centres undefined) [Terazosin hydrochloride]: 63.5%; `C[C@H]1[C@H](NC(=O)/C(=N\OC(C)(C)C(=O)O)c2csc(N)n2)C(=O)N1S(=O)(=O)O` [Aztreonam]: 26.5%.
Next, `CNCCC=C1c2ccccc2CCc2ccccc21` [Nortriptyline hydrochloride]: 49.8%; `CCc1c2c(nc3ccc(OC(=O)N4CCC(N5CCCCC5)CC4)cc13)-c1cc3c(c(=O)n1C2)COC(=O)[C@]3(O)CC` [Irinotecan hydrochloride trihydrate]: 12.3%.
In the case of `CC(C)(O/N=C(\C(=O)N[C@@H]1C(=O)N2C(C(=O)[O-])=C(C[n+]3ccccc3)CS[C@H]12)c1csc(N)n1)C(=O)O` [Ceftazidime pentahydrate], the HCT116-GFP viability is 35.1%.
For the compound `Cc1ccc(/C(=C\CN2CCCC2)c2ccccn2)cc1` [Triprolidine hydrochloride], the HCT116-GFP viability came to 48.3%.
As for `Cc1c(Cl)cccc1Nc1ncccc1C(=O)O` [Clonixin Lysinate], the HCT116-GFP viability came to 23.4%.
For `O=C(N/N=C/c1ccc([N+](=O)[O-])o1)c1ccc(O)cc1` [Nifuroxazide], the HCT116-GFP viability stood at 16.7%.
Next, `CN1CCN(C(c2ccccc2)c2ccc(Cl)cc2)CC1` (centres undefined) [Chlorcyclizine hydrochloride]: 69.5%; `CC(=O)Nc1c(I)c(NC(C)=O)c(I)c(C(=O)O)c1I` [Diatrizoic acid dihydrate]: 33.4%; `CCc1cc(C(N)=S)ccn1` [Ethionamide]: 53.1%.
With `CCC(=O)[C@@]1(C)[C@H](C)C[C@H]2[C@@H]3CCC4=CC(=O)C=C[C@]4(C)[C@H]3[C@@H](O)C[C@@]21C` [Rimexolone], the HCT116-GFP viability came to 11.6%.
Consider `CN(N=O)C(=O)N[C@@H](C=O)[C@@H](O)[C@H](O)[C@H](O)CO` [Streptozotocin], for which the HCT116-GFP viability was 80.7%.
Next, `CC[C@]12CCCN3CCc4c(n(c5ccccc45)C(=O)C1)[C@@H]32` [Eburnamonine (-)]: 4.56%; `CCn1cc(C(=O)O)c(=O)c2cc(F)c(N3CCN(C)CC3)cc21` [Pefloxacine]: 32%.
To `C[C@@H]1CN(c2c(F)c(N)c3c(=O)c(C(=O)O)cn(C4CC4)c3c2F)C[C@H](C)N1` [Sparfloxacin] belongs 38.5%; to `C[C@]12C=CC(=O)C=C1CC[C@@H]1[C@@H]2C(=O)C[C@@]2(C)[C@H]1CC[C@]2(O)C(=O)CO` [Prednisone], 57.7%.
As for `CCn1cc(C(=O)O)c(=O)c2cc(F)c(N3CCNC(C)C3)c(F)c21` (centres undefined) [Lomefloxacin hydrochloride], the HCT116-GFP viability was 62.7%.
As to `CS(=O)(=O)Nc1ccc([N+](=O)[O-])cc1Oc1ccccc1` [Nimesulide], the HCT116-GFP viability was 32.6%.
Next, `COc1cc(C)nc(-n2nc(C)cc2OC)n1` [Epirizole]: 39.3%; `CNC(=C[N+](=O)[O-])NCCSCc1csc(CN(C)C)n1` [Nizatidine]: 65.2%; `CCN(CC)CCCC(C)Nc1c2ccc(Cl)cc2nc2ccc(OC)cc12` (centres undefined) [Quinacrine dihydrochloride hydrate]: 72.7%.
As to `CCCCCCCCCCCCCCCC[N+](C)(C)CCN(Cc1ccc(OC)cc1)c1ncccn1` [Thonzonium bromide], the HCT116-GFP viability worked out at 0.192%.
Take `C#C[C@]1(O)CC[C@H]2[C@@H]3CCc4cc(OC)ccc4[C@H]3CC[C@@]21C` [Ethynylestradiol 3-methyl ether]: the HCT116-GFP viability was found to be 69.2%.
As to `CC(C)NCC(O)c1ccc(NS(C)(=O)=O)cc1` (centres undefined) [Sotalol hydrochloride], the HCT116-GFP viability was 54.8%.
Consider `CC(=O)N1CCN(c2ccc(OCC3COC(Cn4ccnc4)(c4ccc(Cl)cc4Cl)O3)cc2)CC1` (centres undefined) [Ketoconazole], for which the HCT116-GFP viability amounted to 48.3%.
For `CN(CCOc1ccc(NS(C)(=O)=O)cc1)CCc1ccc(NS(C)(=O)=O)cc1` [Dofetilide], the HCT116-GFP viability was 48.7%.
For the compound `CCOC(=O)Nc1ccc2c(c1)N(C(=O)CCN1CCOCC1)c1ccccc1S2` [Moricizine hydrochloride], the HCT116-GFP viability worked out at 34.8%.
In the case of `CNC(=C[N+](=O)[O-])NCCSCc1ccc(CN(C)C)o1` [Ranitidine hydrochloride], the HCT116-GFP viability was 46.7%.
On to `CC(C)C[C@H](NC(=O)[C@@H](O)[C@H](N)Cc1ccccc1)C(=O)O` [Ubenimex], for which the HCT116-GFP viability was found to be 46.1%.
On to `COC(=O)[C@H]1[C@H]2C[C@@H]3c4[nH]c5cc(OC)ccc5c4CCN3C[C@H]2C[C@@H](OC(=O)c2cc(OC)c(OC)c(OC)c2)[C@@H]1OC` [Reserpine], for which the HCT116-GFP viability was determined as 59.6%.
Turning to `CC(=O)O[C@]1(C(C)=O)CC[C@H]2[C@@H]3C=C(C)C4=CC(=O)CC[C@@H]4[C@H]3CC[C@@]21C` [Nomegestrol acetate], the HCT116-GFP viability turned out to be 43.9%.
Next, `O=C1C(CC[S+]([O-])c2ccccc2)C(=O)N(c2ccccc2)N1c1ccccc1` (centres undefined) [Sulfinpyrazone]: 48.4%.
`NS(=O)(=O)c1cc2c(cc1Cl)N=C(CSCc1ccccc1)NS2(=O)=O` [Benzthiazide]: the HCT116-GFP viability stood at 80.8%.
In the case of `CC(=O)Oc1cc(C(F)(F)F)ccc1C(=O)O` [Triflusal], the HCT116-GFP viability came to 42.9%.
Next, `CS(=O)(=O)c1ccc([C@@H](O)[C@@H](CO)NC(=O)C(Cl)Cl)cc1` [Thiamphenicol]: 37.3%.
Next, `CC(C)Cc1ccc([C@H](C)C(=O)O)cc1` [S-(+)-ibuprofen]: 62.8%; `C[C@]12C=CC(=O)C=C1CC[C@@H]1[C@@H]2[C@@H](O)C[C@@]2(C)[C@H]1CC[C@]2(O)C(=O)CO` [Prednisolone]: 68.1%; `O=c1[nH]cc(F)c(=O)[nH]1` [5-fluorouracil]: 2.76%.
Next, `CN1CCN(CCCN2c3ccccc3Sc3ccc(S(=O)(=O)N(C)C)cc32)CC1` [Thioproperazine dimesylate]: 64%; `C[C@@H](c1ncncc1F)[C@](O)(Cn1cncn1)c1ccc(F)cc1F` [Voriconazole]: 38.9%.
As for `O=C(O)Cc1ccccc1Nc1c(Cl)cccc1Cl` [Diclofenac sodium], the HCT116-GFP viability stood at 38.5%.
Consider `COC(=O)C1=C(C)NC(C)=C(C(=O)OC)C1c1ccccc1[N+](=O)[O-]` [Nifedipine], for which the HCT116-GFP viability turned out to be 24.7%.
With `Nc1ccc(O)c(C(=O)O)c1` [Mesalamine], the HCT116-GFP viability was 44.3%.
As to `CCN(CC)CCOC(=O)C1(c2ccc([N+](=O)[O-])cc2)CCCC1` [Nitrocaramiphen hydrochloride], the HCT116-GFP viability was 45.6%.
